Measurements from article PMC8724756.
No constants are given. Whether binding was seen depends on the method and setting. In cells and extracts the contact can be indirect. Some entries that bind do so weakly or less than the wild type.

Chains of the proteins cited; added tags and fusions are not shown.
UniProt Q14694: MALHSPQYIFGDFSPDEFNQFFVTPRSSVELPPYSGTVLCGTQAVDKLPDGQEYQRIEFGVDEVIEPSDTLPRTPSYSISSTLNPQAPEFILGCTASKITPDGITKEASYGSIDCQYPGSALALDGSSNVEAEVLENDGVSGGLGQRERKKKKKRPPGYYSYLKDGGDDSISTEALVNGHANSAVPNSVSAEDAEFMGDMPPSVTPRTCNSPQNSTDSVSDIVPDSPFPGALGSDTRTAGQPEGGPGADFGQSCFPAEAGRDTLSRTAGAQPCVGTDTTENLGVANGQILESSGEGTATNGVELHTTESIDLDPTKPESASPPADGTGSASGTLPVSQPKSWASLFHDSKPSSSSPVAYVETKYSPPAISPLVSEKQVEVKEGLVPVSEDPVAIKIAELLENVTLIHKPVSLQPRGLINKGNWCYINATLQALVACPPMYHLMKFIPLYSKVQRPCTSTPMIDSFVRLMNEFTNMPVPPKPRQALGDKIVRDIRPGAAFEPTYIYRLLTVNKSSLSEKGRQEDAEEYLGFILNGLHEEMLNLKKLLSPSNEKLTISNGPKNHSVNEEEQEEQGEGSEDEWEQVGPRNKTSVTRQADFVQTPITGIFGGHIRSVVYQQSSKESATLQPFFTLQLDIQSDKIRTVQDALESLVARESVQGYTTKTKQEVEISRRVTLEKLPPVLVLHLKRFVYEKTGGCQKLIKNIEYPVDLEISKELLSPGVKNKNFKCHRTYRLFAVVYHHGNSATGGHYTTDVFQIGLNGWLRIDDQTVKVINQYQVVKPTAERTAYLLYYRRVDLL
UniProt P52479: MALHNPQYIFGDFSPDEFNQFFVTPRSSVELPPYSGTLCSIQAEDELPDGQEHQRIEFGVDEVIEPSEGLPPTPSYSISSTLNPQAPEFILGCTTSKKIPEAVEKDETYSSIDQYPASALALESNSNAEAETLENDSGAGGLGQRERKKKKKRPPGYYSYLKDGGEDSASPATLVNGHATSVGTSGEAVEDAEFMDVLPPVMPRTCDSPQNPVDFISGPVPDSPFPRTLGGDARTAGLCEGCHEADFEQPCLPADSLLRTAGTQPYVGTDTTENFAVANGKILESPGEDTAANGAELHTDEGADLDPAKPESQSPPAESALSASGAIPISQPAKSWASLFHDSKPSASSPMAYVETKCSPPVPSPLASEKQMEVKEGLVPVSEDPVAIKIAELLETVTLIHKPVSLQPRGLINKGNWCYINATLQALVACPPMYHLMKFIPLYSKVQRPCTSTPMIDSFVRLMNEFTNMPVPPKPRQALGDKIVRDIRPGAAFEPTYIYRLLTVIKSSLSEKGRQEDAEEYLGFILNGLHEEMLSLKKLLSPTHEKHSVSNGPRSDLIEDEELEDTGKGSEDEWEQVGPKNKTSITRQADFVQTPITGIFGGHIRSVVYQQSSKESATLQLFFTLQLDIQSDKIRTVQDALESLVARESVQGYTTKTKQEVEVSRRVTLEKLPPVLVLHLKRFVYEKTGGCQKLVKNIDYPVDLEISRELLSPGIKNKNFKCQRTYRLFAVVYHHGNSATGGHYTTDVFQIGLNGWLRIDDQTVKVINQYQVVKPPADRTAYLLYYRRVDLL
UniProt Q9GZX7: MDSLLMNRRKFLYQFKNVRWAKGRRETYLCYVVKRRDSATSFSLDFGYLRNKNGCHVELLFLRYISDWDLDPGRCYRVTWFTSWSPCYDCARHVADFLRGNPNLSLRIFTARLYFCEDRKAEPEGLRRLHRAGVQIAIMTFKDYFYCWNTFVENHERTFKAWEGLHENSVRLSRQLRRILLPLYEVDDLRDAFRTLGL
UniProt Q9WVE0: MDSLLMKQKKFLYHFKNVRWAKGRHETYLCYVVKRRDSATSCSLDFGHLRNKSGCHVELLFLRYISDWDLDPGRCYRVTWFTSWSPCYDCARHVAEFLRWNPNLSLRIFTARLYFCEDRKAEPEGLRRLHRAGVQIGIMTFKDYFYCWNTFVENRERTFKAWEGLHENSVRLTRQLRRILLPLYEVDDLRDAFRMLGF

Experiments:
[1] = molecular target: USP10 as used in the GST pull-down assay (UniProt Q14694); test: pull-down; GST pull-down assay; details not shown (Supplementary Fig. 1f)
[2] = molecular target: USP10, endogenous in CH12 cells (mouse (endogenous in CH12)) (UniProt P52479); test: co-IP; endogenous proteins in CH12 cells stimulated with anti-CD40, IL-4, TGF-beta for 72 h; rabbit anti-USP10 or rabbit IgG with Protein G agarose beads; western blot

Row | binding [1] | binding [2] | Substance
1 | binds |  | AID as used in the GST pull-down assay (from UniProt Q9GZX7 1-198)
2 |  | binds | AID, endogenous in CH12 cells (from UniProt Q9WVE0 1-198) (enzyme)
